Data taken from paper PMC3749868, “Proteolytic processing of QSOX1A ensures efficient secretion of a potent disulfide catalyst” (Biochemical Journal, 2013).
No constants are given. Whether binding was seen depends on the method and setting. Binding seen in cells or lysates may run through a third protein. Some results given as binding are weak or reduced against the parent protein; the word gives no strength. Where a sequence is shown, tags or fusion partners need not be part of it.

B1: QSOX1B–V5 (quiescin sulfhydryl oxidase 1, splice variant B, V5-tagged) (enzyme, UniProt O00391-2 30-604)
chain: APRSALYSPSDPLTLLQADTVRGAVLGSRSAWAVEFFASWCGHCIAFAPTWKALAEDVKAWRPALYLAALDCAEETNSAVCRDFNIPGFPTVRFFKAFTKNGSGAVFPVAGADVQTLRERLIDALESHHDTWPPACPPLEPAKLEEIDGFFARNNEEYLALIFEKGGSYLGREVALDLSQHKGVAVRRVLNTEANVVRKFGVTDFPSCYLLFRNGSVSRVPVLMESRSFYTAYLQRLSGLTREAAQTTVAPTTANKIAPTVWKLADRSKIYMADLESALHYILRIEVGRFPVLEGQRLVALKKFVAVLAKYFPGRPLVQNFLHSVNEWLKRQKRNKIPYSFFKTALDDRKEGAVLAKKVNWIGCQGSEPHFRGFPCSLWVLFHFLTVQAARQNVDHSQEAAKAKEVLPAIRGYVHYFFGCRDCASHFEQMAAASMHRVGSPNAAVLWLWSSHNRVNARLAGAPSEDPQFPKVQWPPRELCSACHNERLDVPVWDVEATLNFLKAHFSPSNIILDFPAAGSAARRDVQNVAAAPELAMGALELESRNSTLDPGKPEMMKSPTNTTPHVPAEGPELI
B2: QSOX1A–V5 (quiescin sulfhydryl oxidase 1, splice variant A, V5-tagged, uncleaved) (enzyme, human, UniProt O00391 30-747, looked up)
chain: APRSALYSPSDPLTLLQADTVRGAVLGSRSAWAVEFFASWCGHCIAFAPTWKALAEDVKAWRPALYLAALDCAEETNSAVCRDFNIPGFPTVRFFKAFTKNGSGAVFPVAGADVQTLRERLIDALESHHDTWPPACPPLEPAKLEEIDGFFARNNEEYLALIFEKGGSYLGREVALDLSQHKGVAVRRVLNTEANVVRKFGVTDFPSCYLLFRNGSVSRVPVLMESRSFYTAYLQRLSGLTREAAQTTVAPTTANKIAPTVWKLADRSKIYMADLESALHYILRIEVGRFPVLEGQRLVALKKFVAVLAKYFPGRPLVQNFLHSVNEWLKRQKRNKIPYSFFKTALDDRKEGAVLAKKVNWIGCQGSEPHFRGFPCSLWVLFHFLTVQAARQNVDHSQEAAKAKEVLPAIRGYVHYFFGCRDCASHFEQMAAASMHRVGSPNAAVLWLWSSHNRVNARLAGAPSEDPQFPKVQWPPRELCSACHNERLDVPVWDVEATLNFLKAHFSPSNIILDFPAAGSAARRDVQNVAAAPELAMGALELESRNSTLDPGKPEMMKSPTNTTPHVPAEGPEASRPPKLHPGLRAAPGQEPPEHMAELQRNEQEQPLGQWHLSKRDTGAALLAESRAEKNRLWGPLEVRRVGRSSKQLVDIPEGQLEARAGRGRGQWLQVLGGGFSYLDISLCVGLYSLSFMGLLAMYTYFQAKIRALKGHAGHPAA
notes: human QSOX1A, the long splice variant of QSOX1 with 143 additional C-terminal amino acids including the single-pass TM domain; uncleaved (full-length) form; Membrane-integrated, V5 on the cytosolic side; also called V5-tagged QSOX1A; uncleaved QSOX1A–V5; source: HT1080, stably overexpressing (cross-linking in cells, SEC of lysate); HT1080, transiently co-transfected, in lysate (co-assembly); not …

Molecular target: T1, QSOX1A–GFP (QSOX1A with a C-terminal GFP tag, uncleaved) (human) (UniProt O00391)
T1 sequence: B2 chain
Assay: co-IP; HT1080 co-transfected for 24 h, free thiols blocked with 20 mM NEM, lysed in RIPA buffer; GFP-Trap_A immunoisolation of QSOX1A–GFP, immunoblot with anti-V5 and anti-GFP

| Binder | binding |
| --- | --- |
| B1 | binds |
| B2 | binds |
